The exact form of at least one protein or probe is not confirmed. For part of these data: At least one verdict was read from the data and is not stated in words by the source. For part of these data: Where a protein sequence is shown, tags need not be part of it.
Key:
(His)6-PABPN1 (mouse) = target: T1, (His)6-PABPN1 (mouse) (UniProt Q8CCS6); experiment: EMSA; settings: REMSA as previously described (ref 54), 10 ng GST-TTP, 10- to 20-fold excess PABPN1 and/or PAP, native PAGE, pH and temperature not given, recombinant protein, protein details: (His)6, label: 32P, probe letters rebuilt from the primers and the genome, part of a longer molecule
T1 sequence (looked up, limits assumed): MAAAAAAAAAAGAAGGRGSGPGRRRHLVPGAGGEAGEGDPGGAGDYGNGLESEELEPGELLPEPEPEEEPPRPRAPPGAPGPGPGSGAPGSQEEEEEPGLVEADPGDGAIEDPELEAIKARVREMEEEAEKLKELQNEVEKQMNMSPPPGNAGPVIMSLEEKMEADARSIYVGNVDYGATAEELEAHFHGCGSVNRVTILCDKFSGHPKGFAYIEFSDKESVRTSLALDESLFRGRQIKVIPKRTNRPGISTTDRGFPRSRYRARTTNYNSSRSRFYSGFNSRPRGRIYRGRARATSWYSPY

WT GST-TTP (mouse) = target: T2, WT GST-TTP (mouse) (UniProt P22893); experiment: EMSA; settings: REMSA as previously described (ref 54), 10 ng GST-TTP, 10- to 20-fold excess PABPN1 and/or PAP, native PAGE, recombinant protein, residues 2-319, protein details: N-terminal GST, label: 32P, probe letters rebuilt from the primers and the genome, part of a longer molecule
T2 sequence (looked up): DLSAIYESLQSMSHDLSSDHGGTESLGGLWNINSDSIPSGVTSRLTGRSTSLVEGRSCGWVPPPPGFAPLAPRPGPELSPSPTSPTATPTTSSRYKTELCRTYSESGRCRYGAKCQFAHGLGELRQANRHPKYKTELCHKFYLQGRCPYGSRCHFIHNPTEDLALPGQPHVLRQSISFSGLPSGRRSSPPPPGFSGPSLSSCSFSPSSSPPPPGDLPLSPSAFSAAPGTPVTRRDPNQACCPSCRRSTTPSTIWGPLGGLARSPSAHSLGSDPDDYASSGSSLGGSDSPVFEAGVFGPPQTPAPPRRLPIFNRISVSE

[1] = test system: WT GST-TTP + (His)6-PABPN1; experiment: EMSA supershift; settings: PABPN1 recruited by TTP, supershift with anti-TTP and anti-PABPN1; REMSA as previously described (ref 54); 10 ng GST-TTP, 10- to 20-fold excess PABPN1 and/or PAP, native PAGE; pH and temperature not given; recombinant protein; protein details: N-terminal GST,(His)6; label: 32P; probe letters rebuilt from the primers and the genome; part of a longer molecule
[2] = test system: WT GST-TTP + (His)6-PABPN1; experiment: EMSA; settings: TTP/PABPN1/RNA complex; REMSA as previously described (ref 54); 10 ng GST-TTP, 10- to 20-fold excess PABPN1 and/or PAP, native PAGE; pH and temperature not given; recombinant protein; protein details: N-terminal GST,(His)6; label: 32P; probe letters rebuilt from the primers and the genome; part of a longer molecule

Sequence: UCUCCCUCACAAUUUCCACCCCAGACCCUCAUAGUAACAGGAUGAGCCUAGGGAGCCCUUCCUACUCUCUUGAAUACCAUCAAUAAAGUUCGCUGCACCC [GAPDH-3'UTR_A20]
- binding result ((His)6-PABPN1 (mouse)): binds

Sequence: UGAGGUGCAAUGCACAGCCUUCCUCACAGAGCCAGCCCCCCUCUAUUUAUAUUUGCACUUAUUAUUUAUUAUUUAUUUAUUAUUUAUUUAUUUGCUUAUGAAUGUAUUUAUUUGGAAGGCCGG [TNFa-ARE]
- binding result (WT GST-TTP (mouse); pH and temperature not given): binds
- binding result [1]: binds

Sequence: UGAGGUGCAAUGCACAGCCUUCCUCACAGAGCCAGCCCCCCUCUAUUUAUAUUUGCACUUAUUAUUUAUUAUUUAUUUAUUAUUUAUUUAUUUGCUUAUGAAUGUAUUUAUUUGGAAGGCCGG [TNFa-ARE_A20]
- binding result ((His)6-PABPN1 (mouse); PABPN1 on the poly(A) tail): binds
- binding result (WT GST-TTP (mouse); TTP on the ARE region, pH and temperature not …): binds
- binding result [2]: binds

From article PMC3406032, “Tristetraprolin Inhibits Poly(A)-Tail Synthesis in Nuclear mRNA that Contains AU-Rich Elements by Interacting with Poly(A)-Binding Protein Nuclear 1” (PLoS ONE, 2012)
